# According to the supplement of paper PMC12889115:
# The other results are listed elsewhere or left out. Values are raw readings; no control value is given beside them.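 In the initial screen, polymyxin B was used at a concentration that permeabilizes Salmonella's outer membrane but not its inner membrane. Maximum growth was set by DMSO wells with or without polymyxin B. Since plates varied, data were ranked per plate, and compounds giving the lowest OD600 advanced as hits.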
# Test system: Salmonella enterica serovar Typhimurium SL1344
# Assay: bacterial growth OD600 after 18 h with compound and polymyxin B; higher = more bacterial growth (less inhibition)
# Settings: 50 µM, Mueller-Hinton broth
Structure (SMILES),bacterial growth OD600 (polymyxin B 1 µg/mL),bacterial growth OD600 (polymyxin B 0.75 µg/mL)
Cc1c(-c2ccccc2F)[nH]c2ccc(CNC(=O)CCCn3cncn3)cc12,0.548,
COC(=O)CCCC(=O)N(C)C1CCCN(CCc2ccccc2)C1 (stereo not given),1.22,
Clc1ccccc1CNC1CCCc2nc(-c3cccnc3)ncc21 (stereo not given),0.821,
COc1cc(C(=O)N(C)Cc2ccc(F)cc2)ccc1OC1CCN(C(C)=O)CC1,0.929,
CCCC(=O)NC1CC(=O)N(Cc2cccc3ccccc23)C1 (stereo not given),0.993,
Cc1ncc2c(c1CNC(=O)Cc1cccs1)CCN(C(=O)/C=C/c1ccccc1Cl)C2,,0.809
O=C(CC1(c2cccc(F)c2)CC(=O)N(C2CCCC2)C1=O)N1CCN(C2CCCC2)C(=O)C1 (stereo not given),,0.58
O=C(CSc1ccccn1)NC1CCCc2nc(-c3cccnc3)ncc21 (stereo not given),0.841,
c1csc(-c2noc(CN3CCC(c4nc5ccccc5o4)CC3)n2)c1,0.776,
CN(CCc1ccccn1)C(=O)c1cc(COc2cccc3cnccc23)on1,1,
COc1ccc(C(=O)NC2CC2)c(OC2CCN(CC3CC=CCC3)CC2)c1 (stereo not given),,0.837
O=C(NCCCN1CCOCC1)c1cnn(-c2ncc3c(n2)-c2ccccc2CCC3)c1C1CC1,,0.833
C=C(C)CNC(=O)C1CCN(C2CCN(Cc3cccc(C)n3)CC2)CC1,,0.813
CCOc1ccc(CN2CCCC(CCC(=O)Nc3ccccc3F)C2)cc1CO (stereo not given),0.938,
COc1cccc(C(=O)NCC2CCCN(CCCn3cccn3)C2)c1OC (stereo not given),1.02,
Cc1nn(C)cc1CN1CCC(c2cccc(F)c2)Sc2ccccc21 (stereo not given),,0.018
CC(C)CCN1CCNC(=O)C1CC(=O)NCCCn1cccn1 (stereo not given),0.92,
CCN(CC)C1CCN(C(=O)c2ccc3nc(Cc4cccc(Cl)c4)oc3c2)C1 (stereo not given),,0.688
COc1cccc(CC2(CCC(=O)NCc3cccc(C(F)(F)F)c3)CCC(=O)N2)c1 (stereo not given),,0.841
O=C(CCC1CCN(C(=O)CCc2cn[nH]c2)CC1)NCc1cccc(Cl)c1,,0.765

# Structural class, those above containing a Cl atom (four)
Structure (SMILES),bacterial growth OD600 (polymyxin B 1 µg/mL),bacterial growth OD600 (polymyxin B 0.75 µg/mL)
Clc1ccccc1CNC1CCCc2nc(-c3cccnc3)ncc21 (stereo not given),0.821,
Cc1ncc2c(c1CNC(=O)Cc1cccs1)CCN(C(=O)/C=C/c1ccccc1Cl)C2,,0.809
CCN(CC)C1CCN(C(=O)c2ccc3nc(Cc4cccc(Cl)c4)oc3c2)C1 (stereo not given),,0.688
O=C(CCC1CCN(C(=O)CCc2cn[nH]c2)CC1)NCc1cccc(Cl)c1,,0.765
